Source: patent US20100041694A1, “AGRICULTURAL COMPOSITION FOR CONTROLLING OR PREVENTING PLANT DISEASES CAUSED BY PLANT PATHOGENIC MICROBES” (Sumitomo Chemical Company, Limited, priority 2007, published 2010)
Some entries share one result that the patent states for a list of compounds.

Legend:
Format in all cases: in vivo
Sclerotinia sclerotiorum = experiment: Preventing infection by cucumber Sclerotinia rot, foliage application; settings: cucumber (Sagami-Hanjiro), flowable formulation 500 ppm foliage application, then inoculation; 18° C. high humidity 4 days
Fusarium oxysporum = experiment: Preventing infection by tomato wilt by soil treatment (irrigation); settings: tomato (Patio) in contaminated soil, 10 mg compound per pot by soil irrigation, 1 month
[1] = test system: Verticillium albo-atrum, V. dahliae, V. nigrescens; experiment: Potato blue stem, soil irrigation treatment; settings: potato (Danshaku) in contaminated soil, 10 mg compound per pot by soil irrigation, 2 months
Gibberella fujikuroi = experiment: Rice bakanae disease, seed treatment; settings: contaminated unhulled rice, seed treatment 200 g compound per 100 kg seeds, 1 month
Gaeumannomyces graminis = experiment: Malt damping off, seed treatment; settings: contaminated malt seeds, seed treatment 200 g compound per 100 kg seeds, 1 month

CC(C)Oc1cccc(CNC(=O)c2ccc3ncccc3c2)c1 [Compound 109]
infected areas of treated plants relative to infected areas of untreated plants (Sclerotinia sclerotiorum): ≤ 10% | blotches in treated plants (Fusarium oxysporum): no blotches are found | growth of treated plants (Fusarium oxysporum): favorably grow at a level equivalent to that of plants that grow have in noncontaminated soil | blotches in treated plants [1]: no blotches are found | growth of treated plants [1]: favorably grow at a level equivalent to that of plants that grow in noncontaminated soil | growth of treated plants (Gibberella fujikuroi): favorably grow at a level equivalent to that of plants that have grown from noncontaminated unhulled rice | growth of treated plants (Gaeumannomyces graminis): favorably grow at a level equivalent to that of plants that grow from noncontaminated seeds

CCCOc1ccc(CNC(=O)c2ccc3ncccc3c2)cc1 [Compound 111]
infected areas of treated plants relative to infected areas of untreated plants (Sclerotinia sclerotiorum): ≤ 10% | blotches in treated plants (Fusarium oxysporum): no blotches are found | growth of treated plants (Fusarium oxysporum): favorably grow at a level equivalent to that of plants that grow have in noncontaminated soil | blotches in treated plants [1]: no blotches are found | growth of treated plants [1]: favorably grow at a level equivalent to that of plants that grow in noncontaminated soil | growth of treated plants (Gibberella fujikuroi): favorably grow at a level equivalent to that of plants that have grown from noncontaminated unhulled rice | growth of treated plants (Gaeumannomyces graminis): favorably grow at a level equivalent to that of plants that grow from noncontaminated seeds

CCCCOc1ccc(CNC(=O)c2ccc3ncccc3c2)cc1 [Compound 112]
infected areas of treated plants relative to infected areas of untreated plants (Sclerotinia sclerotiorum): ≤ 10% | blotches in treated plants (Fusarium oxysporum): no blotches are found | growth of treated plants (Fusarium oxysporum): favorably grow at a level equivalent to that of plants that grow have in noncontaminated soil | blotches in treated plants [1]: no blotches are found | growth of treated plants [1]: favorably grow at a level equivalent to that of plants that grow in noncontaminated soil | growth of treated plants (Gibberella fujikuroi): favorably grow at a level equivalent to that of plants that have grown from noncontaminated unhulled rice | growth of treated plants (Gaeumannomyces graminis): favorably grow at a level equivalent to that of plants that grow from noncontaminated seeds

CCCCCOc1ccc(CNC(=O)c2ccc3ncccc3c2)cc1 [Compound 113]
infected areas of treated plants relative to infected areas of untreated plants (Sclerotinia sclerotiorum): ≤ 10% | blotches in treated plants (Fusarium oxysporum): no blotches are found | growth of treated plants (Fusarium oxysporum): favorably grow at a level equivalent to that of plants that grow have in noncontaminated soil | blotches in treated plants [1]: no blotches are found | growth of treated plants [1]: favorably grow at a level equivalent to that of plants that grow in noncontaminated soil | growth of treated plants (Gibberella fujikuroi): favorably grow at a level equivalent to that of plants that have grown from noncontaminated unhulled rice | growth of treated plants (Gaeumannomyces graminis): favorably grow at a level equivalent to that of plants that grow from noncontaminated seeds

CCCCCCOc1ccc(CNC(=O)c2ccc3ncccc3c2)cc1 [Compound 114]
infected areas of treated plants relative to infected areas of untreated plants (Sclerotinia sclerotiorum): ≤ 30% | blotches in treated plants (Fusarium oxysporum): no blotches are found | growth of treated plants (Fusarium oxysporum): favorably grow at a level equivalent to that of plants that grow have in noncontaminated soil | blotches in treated plants [1]: no blotches are found | growth of treated plants [1]: favorably grow at a level equivalent to that of plants that grow in noncontaminated soil | growth of treated plants (Gibberella fujikuroi): favorably grow at a level equivalent to that of plants that have grown from noncontaminated unhulled rice | growth of treated plants (Gaeumannomyces graminis): favorably grow at a level equivalent to that of plants that grow from noncontaminated seeds

O=C(NCc1ccc(COc2ccccc2)cc1F)c1ccc2ncccc2c1 [Compound 115]
infected areas of treated plants relative to infected areas of untreated plants (Sclerotinia sclerotiorum): ≤ 10% | blotches in treated plants (Fusarium oxysporum): no blotches are found | growth of treated plants (Fusarium oxysporum): favorably grow at a level equivalent to that of plants that grow have in noncontaminated soil | blotches in treated plants [1]: no blotches are found | growth of treated plants [1]: favorably grow at a level equivalent to that of plants that grow in noncontaminated soil | growth of treated plants (Gibberella fujikuroi): favorably grow at a level equivalent to that of plants that have grown from noncontaminated unhulled rice | growth of treated plants (Gaeumannomyces graminis): favorably grow at a level equivalent to that of plants that grow from noncontaminated seeds

O=C(NCc1ccc(Cl)cc1F)c1ccc2ncccc2c1 [Compound 119]
infected areas of treated plants relative to infected areas of untreated plants (Sclerotinia sclerotiorum): ≤ 10% | blotches in treated plants (Fusarium oxysporum): no blotches are found | growth of treated plants (Fusarium oxysporum): favorably grow at a level equivalent to that of plants that grow have in noncontaminated soil | blotches in treated plants [1]: no blotches are found | growth of treated plants [1]: favorably grow at a level equivalent to that of plants that grow in noncontaminated soil | growth of treated plants (Gibberella fujikuroi): favorably grow at a level equivalent to that of plants that have grown from noncontaminated unhulled rice | growth of treated plants (Gaeumannomyces graminis): favorably grow at a level equivalent to that of plants that grow from noncontaminated seeds

CCCCCOc1ccc(CNC(=O)c2ccc3ncccc3c2)c(F)c1 [Compound 120]
infected areas of treated plants relative to infected areas of untreated plants (Sclerotinia sclerotiorum): ≤ 10% | blotches in treated plants (Fusarium oxysporum): no blotches are found | growth of treated plants (Fusarium oxysporum): favorably grow at a level equivalent to that of plants that grow have in noncontaminated soil | blotches in treated plants [1]: no blotches are found | growth of treated plants [1]: favorably grow at a level equivalent to that of plants that grow in noncontaminated soil | growth of treated plants (Gibberella fujikuroi): favorably grow at a level equivalent to that of plants that have grown from noncontaminated unhulled rice | growth of treated plants (Gaeumannomyces graminis): favorably grow at a level equivalent to that of plants that grow from noncontaminated seeds

CCOc1ccc(F)c(CNC(=O)c2ccc3ncccc3c2)c1 [Compound 124]
infected areas of treated plants relative to infected areas of untreated plants (Sclerotinia sclerotiorum): ≤ 10% | blotches in treated plants (Fusarium oxysporum): no blotches are found | growth of treated plants (Fusarium oxysporum): favorably grow at a level equivalent to that of plants that grow have in noncontaminated soil | blotches in treated plants [1]: no blotches are found | growth of treated plants [1]: favorably grow at a level equivalent to that of plants that grow in noncontaminated soil | growth of treated plants (Gibberella fujikuroi): favorably grow at a level equivalent to that of plants that have grown from noncontaminated unhulled rice | growth of treated plants (Gaeumannomyces graminis): favorably grow at a level equivalent to that of plants that grow from noncontaminated seeds

CCCOc1ccc(F)c(CNC(=O)c2ccc3ncccc3c2)c1 [Compound 125]
infected areas of treated plants relative to infected areas of untreated plants (Sclerotinia sclerotiorum): ≤ 10% | blotches in treated plants (Fusarium oxysporum): no blotches are found | growth of treated plants (Fusarium oxysporum): favorably grow at a level equivalent to that of plants that grow have in noncontaminated soil | blotches in treated plants [1]: no blotches are found | growth of treated plants [1]: favorably grow at a level equivalent to that of plants that grow in noncontaminated soil | growth of treated plants (Gibberella fujikuroi): favorably grow at a level equivalent to that of plants that have grown from noncontaminated unhulled rice | growth of treated plants (Gaeumannomyces graminis): favorably grow at a level equivalent to that of plants that grow from noncontaminated seeds

CCCCOc1ccc(F)c(CNC(=O)c2ccc3ncccc3c2)c1 [Compound 126]
infected areas of treated plants relative to infected areas of untreated plants (Sclerotinia sclerotiorum): ≤ 30% | blotches in treated plants (Fusarium oxysporum): no blotches are found | growth of treated plants (Fusarium oxysporum): favorably grow at a level equivalent to that of plants that grow have in noncontaminated soil | blotches in treated plants [1]: no blotches are found | growth of treated plants [1]: favorably grow at a level equivalent to that of plants that grow in noncontaminated soil | growth of treated plants (Gibberella fujikuroi): favorably grow at a level equivalent to that of plants that have grown from noncontaminated unhulled rice | growth of treated plants (Gaeumannomyces graminis): favorably grow at a level equivalent to that of plants that grow from noncontaminated seeds

CCCCCCOc1ccc(F)c(CNC(=O)c2ccc3ncccc3c2)c1 [Compound 127]
infected areas of treated plants relative to infected areas of untreated plants (Sclerotinia sclerotiorum): ≤ 10% | blotches in treated plants (Fusarium oxysporum): no blotches are found | growth of treated plants (Fusarium oxysporum): favorably grow at a level equivalent to that of plants that grow have in noncontaminated soil | blotches in treated plants [1]: no blotches are found | growth of treated plants [1]: favorably grow at a level equivalent to that of plants that grow in noncontaminated soil | growth of treated plants (Gibberella fujikuroi): favorably grow at a level equivalent to that of plants that have grown from noncontaminated unhulled rice | growth of treated plants (Gaeumannomyces graminis): favorably grow at a level equivalent to that of plants that grow from noncontaminated seeds

O=C(NCc1cc(Oc2ccccc2)ccc1F)c1ccc2ncccc2c1 [Compound 128]
infected areas of treated plants relative to infected areas of untreated plants (Sclerotinia sclerotiorum): ≤ 10% | blotches in treated plants (Fusarium oxysporum): no blotches are found | growth of treated plants (Fusarium oxysporum): favorably grow at a level equivalent to that of plants that grow have in noncontaminated soil | blotches in treated plants [1]: no blotches are found | growth of treated plants [1]: favorably grow at a level equivalent to that of plants that grow in noncontaminated soil | growth of treated plants (Gibberella fujikuroi): favorably grow at a level equivalent to that of plants that have grown from noncontaminated unhulled rice | growth of treated plants (Gaeumannomyces graminis): favorably grow at a level equivalent to that of plants that grow from noncontaminated seeds

CC(C)CCCOc1cccc(CNC(=O)c2ccc3ncccc3c2)c1 [Compound 130]
infected areas of treated plants relative to infected areas of untreated plants (Sclerotinia sclerotiorum): ≤ 10% | blotches in treated plants (Fusarium oxysporum): no blotches are found | growth of treated plants (Fusarium oxysporum): favorably grow at a level equivalent to that of plants that grow have in noncontaminated soil | blotches in treated plants [1]: no blotches are found | growth of treated plants [1]: favorably grow at a level equivalent to that of plants that grow in noncontaminated soil | growth of treated plants (Gibberella fujikuroi): favorably grow at a level equivalent to that of plants that have grown from noncontaminated unhulled rice | growth of treated plants (Gaeumannomyces graminis): favorably grow at a level equivalent to that of plants that grow from noncontaminated seeds
